Results as given in article PMC9583166.
These are yes or no findings as the source states them, for the method shown. For part of these data: In cells and extracts the contact can be indirect. Some results given as binding are weak or reduced against the parent protein; the word gives no strength. Blank lines part the entries; values can stand above or below the substance they belong to.

Chains of the proteins cited; added tags and fusions are not shown. Lines headed by an entry give the natural chain unless they say otherwise; changes in a name come on top. Residues count along the entry.
SIN1-RBD (Q9BPZ7, residues 266-373): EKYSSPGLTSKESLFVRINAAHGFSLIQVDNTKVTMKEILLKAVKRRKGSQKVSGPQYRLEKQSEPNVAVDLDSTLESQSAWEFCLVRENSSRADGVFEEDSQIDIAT
SIN1-PH (Q9BPZ7, residues 373-522): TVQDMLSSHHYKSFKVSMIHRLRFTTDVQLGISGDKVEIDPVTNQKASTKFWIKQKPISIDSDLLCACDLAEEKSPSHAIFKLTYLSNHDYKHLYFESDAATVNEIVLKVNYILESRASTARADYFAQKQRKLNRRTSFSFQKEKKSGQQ
UniProt P60953: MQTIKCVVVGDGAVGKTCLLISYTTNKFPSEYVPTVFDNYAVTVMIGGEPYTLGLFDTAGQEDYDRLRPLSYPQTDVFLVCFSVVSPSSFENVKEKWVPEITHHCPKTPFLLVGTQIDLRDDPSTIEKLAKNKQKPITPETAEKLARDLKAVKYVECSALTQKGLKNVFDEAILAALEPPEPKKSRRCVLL
UniProt Q92963: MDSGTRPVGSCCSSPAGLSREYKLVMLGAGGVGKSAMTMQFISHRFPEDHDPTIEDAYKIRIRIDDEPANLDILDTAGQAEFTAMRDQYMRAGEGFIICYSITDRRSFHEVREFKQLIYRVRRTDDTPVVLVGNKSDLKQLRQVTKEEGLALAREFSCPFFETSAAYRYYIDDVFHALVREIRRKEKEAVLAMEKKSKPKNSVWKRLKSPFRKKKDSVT

Columns and labels:
[1] = molecular target: GST-fused SIN1-RBD (not stated (the printed accession is a human entry)) (UniProt Q9BPZ7); test: pull-down; purified GST-fused RBDs on glutathione agarose beads, incubated 1 h with cell lysates with overexpressed FLAG-tagged GTPases; wash buffer 50 mM Tris-HCl, 150 mM NaCl, 10 mM MgCl2; immunoblot; only the target purified
[2] = molecular target: SIN1-RBD (not stated (the printed accession is a human entry)) (UniProt Q9BPZ7); test: fluorescence polarisation; SIN1-RBD premixed and pre-incubated with 2x excess SIN1-PH, then titrated to HRAS•mGppNHp; both purified
[3] = molecular target: CDC42 (not stated (the printed accession is a human entry)) (UniProt P60953); test: fluorescence polarisation; increasing amounts of SIN1 protein titrated to 1 µM mGppNHp-bound GTPase; 21°C; 30 mM Tris/HCl pH 7.5, 150 mM NaCl, 5 mM MgCl2, 3 mM dithiothreitol; quadratic ligand binding equation; both purified

binding [1]: binds weakly
Substance: RIT1^G30V with FLAG-Tag (from UniProt Q92963 1-219)

binding [2]: no binding (tested: 2x excess SIN1-PH)
Substance: SIN1-PH (from UniProt Q9BPZ7 373-522) (domain or fragment)

binding [3]: no binding
Substance: SIN1-RBD (from UniProt Q9BPZ7 266-373) (domain or fragment)
